# From PubChem BioAssay (EPA / NIEHS)
# By UniProt entry, the sequences of proteins in these tests, tags left out. Where a name states a change or a piece, a line headed by the entry shows the natural chain unless it says otherwise.
# UniProt P18031: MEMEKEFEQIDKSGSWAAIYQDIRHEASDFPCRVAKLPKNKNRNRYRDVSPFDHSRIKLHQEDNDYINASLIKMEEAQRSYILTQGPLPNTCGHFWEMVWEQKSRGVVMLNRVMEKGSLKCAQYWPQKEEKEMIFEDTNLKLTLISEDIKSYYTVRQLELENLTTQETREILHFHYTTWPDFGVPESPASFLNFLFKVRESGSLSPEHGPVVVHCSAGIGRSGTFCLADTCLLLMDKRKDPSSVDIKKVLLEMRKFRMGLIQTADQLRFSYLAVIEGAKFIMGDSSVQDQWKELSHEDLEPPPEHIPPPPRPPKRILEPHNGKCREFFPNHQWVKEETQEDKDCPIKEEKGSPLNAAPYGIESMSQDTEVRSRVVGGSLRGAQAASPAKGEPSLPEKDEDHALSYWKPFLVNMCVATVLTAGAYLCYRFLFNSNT
# UniProt P29350: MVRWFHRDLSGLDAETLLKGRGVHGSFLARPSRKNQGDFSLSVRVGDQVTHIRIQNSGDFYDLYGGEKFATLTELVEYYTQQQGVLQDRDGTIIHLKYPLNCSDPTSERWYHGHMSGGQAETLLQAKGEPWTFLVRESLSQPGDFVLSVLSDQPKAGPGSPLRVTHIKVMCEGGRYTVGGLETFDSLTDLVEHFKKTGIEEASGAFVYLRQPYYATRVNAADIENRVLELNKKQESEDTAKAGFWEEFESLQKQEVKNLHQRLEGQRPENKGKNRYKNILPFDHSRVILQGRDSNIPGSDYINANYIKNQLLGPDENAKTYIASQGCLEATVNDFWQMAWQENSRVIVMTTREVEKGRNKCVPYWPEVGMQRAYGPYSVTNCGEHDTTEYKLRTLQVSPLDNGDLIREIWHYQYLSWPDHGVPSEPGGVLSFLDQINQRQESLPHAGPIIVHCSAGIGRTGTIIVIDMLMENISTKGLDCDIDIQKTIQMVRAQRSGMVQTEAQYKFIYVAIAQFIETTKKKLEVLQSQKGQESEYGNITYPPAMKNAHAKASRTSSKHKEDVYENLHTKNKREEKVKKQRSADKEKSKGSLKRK
# UniProt P35813: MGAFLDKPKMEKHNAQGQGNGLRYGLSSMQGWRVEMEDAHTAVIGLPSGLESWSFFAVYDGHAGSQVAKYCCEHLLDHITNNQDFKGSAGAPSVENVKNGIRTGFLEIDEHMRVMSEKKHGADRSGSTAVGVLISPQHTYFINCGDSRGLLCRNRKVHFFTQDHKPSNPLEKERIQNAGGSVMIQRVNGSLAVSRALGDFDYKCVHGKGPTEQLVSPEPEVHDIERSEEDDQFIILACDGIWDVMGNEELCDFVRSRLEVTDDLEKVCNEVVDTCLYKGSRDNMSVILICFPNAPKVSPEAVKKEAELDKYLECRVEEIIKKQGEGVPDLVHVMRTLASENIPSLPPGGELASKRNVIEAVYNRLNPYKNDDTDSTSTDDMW
# UniProt Q05209: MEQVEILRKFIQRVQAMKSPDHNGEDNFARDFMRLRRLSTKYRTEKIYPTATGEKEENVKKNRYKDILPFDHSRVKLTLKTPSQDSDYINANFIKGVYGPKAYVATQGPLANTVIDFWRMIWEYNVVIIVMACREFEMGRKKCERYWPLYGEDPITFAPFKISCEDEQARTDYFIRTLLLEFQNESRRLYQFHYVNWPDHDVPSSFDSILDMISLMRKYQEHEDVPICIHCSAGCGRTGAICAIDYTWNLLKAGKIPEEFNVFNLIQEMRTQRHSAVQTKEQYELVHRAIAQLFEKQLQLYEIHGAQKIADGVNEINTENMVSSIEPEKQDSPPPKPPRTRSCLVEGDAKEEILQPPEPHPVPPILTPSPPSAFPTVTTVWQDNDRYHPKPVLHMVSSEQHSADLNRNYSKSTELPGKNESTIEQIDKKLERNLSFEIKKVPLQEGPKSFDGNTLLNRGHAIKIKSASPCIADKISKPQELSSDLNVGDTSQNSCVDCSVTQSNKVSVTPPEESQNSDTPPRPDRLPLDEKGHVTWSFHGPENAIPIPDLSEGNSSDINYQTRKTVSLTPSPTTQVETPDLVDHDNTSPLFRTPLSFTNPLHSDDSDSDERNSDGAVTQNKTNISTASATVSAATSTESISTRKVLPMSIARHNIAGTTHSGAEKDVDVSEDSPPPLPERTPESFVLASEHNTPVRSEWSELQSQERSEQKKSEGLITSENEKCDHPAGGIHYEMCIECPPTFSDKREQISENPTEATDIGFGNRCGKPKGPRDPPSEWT
# UniProt P23467: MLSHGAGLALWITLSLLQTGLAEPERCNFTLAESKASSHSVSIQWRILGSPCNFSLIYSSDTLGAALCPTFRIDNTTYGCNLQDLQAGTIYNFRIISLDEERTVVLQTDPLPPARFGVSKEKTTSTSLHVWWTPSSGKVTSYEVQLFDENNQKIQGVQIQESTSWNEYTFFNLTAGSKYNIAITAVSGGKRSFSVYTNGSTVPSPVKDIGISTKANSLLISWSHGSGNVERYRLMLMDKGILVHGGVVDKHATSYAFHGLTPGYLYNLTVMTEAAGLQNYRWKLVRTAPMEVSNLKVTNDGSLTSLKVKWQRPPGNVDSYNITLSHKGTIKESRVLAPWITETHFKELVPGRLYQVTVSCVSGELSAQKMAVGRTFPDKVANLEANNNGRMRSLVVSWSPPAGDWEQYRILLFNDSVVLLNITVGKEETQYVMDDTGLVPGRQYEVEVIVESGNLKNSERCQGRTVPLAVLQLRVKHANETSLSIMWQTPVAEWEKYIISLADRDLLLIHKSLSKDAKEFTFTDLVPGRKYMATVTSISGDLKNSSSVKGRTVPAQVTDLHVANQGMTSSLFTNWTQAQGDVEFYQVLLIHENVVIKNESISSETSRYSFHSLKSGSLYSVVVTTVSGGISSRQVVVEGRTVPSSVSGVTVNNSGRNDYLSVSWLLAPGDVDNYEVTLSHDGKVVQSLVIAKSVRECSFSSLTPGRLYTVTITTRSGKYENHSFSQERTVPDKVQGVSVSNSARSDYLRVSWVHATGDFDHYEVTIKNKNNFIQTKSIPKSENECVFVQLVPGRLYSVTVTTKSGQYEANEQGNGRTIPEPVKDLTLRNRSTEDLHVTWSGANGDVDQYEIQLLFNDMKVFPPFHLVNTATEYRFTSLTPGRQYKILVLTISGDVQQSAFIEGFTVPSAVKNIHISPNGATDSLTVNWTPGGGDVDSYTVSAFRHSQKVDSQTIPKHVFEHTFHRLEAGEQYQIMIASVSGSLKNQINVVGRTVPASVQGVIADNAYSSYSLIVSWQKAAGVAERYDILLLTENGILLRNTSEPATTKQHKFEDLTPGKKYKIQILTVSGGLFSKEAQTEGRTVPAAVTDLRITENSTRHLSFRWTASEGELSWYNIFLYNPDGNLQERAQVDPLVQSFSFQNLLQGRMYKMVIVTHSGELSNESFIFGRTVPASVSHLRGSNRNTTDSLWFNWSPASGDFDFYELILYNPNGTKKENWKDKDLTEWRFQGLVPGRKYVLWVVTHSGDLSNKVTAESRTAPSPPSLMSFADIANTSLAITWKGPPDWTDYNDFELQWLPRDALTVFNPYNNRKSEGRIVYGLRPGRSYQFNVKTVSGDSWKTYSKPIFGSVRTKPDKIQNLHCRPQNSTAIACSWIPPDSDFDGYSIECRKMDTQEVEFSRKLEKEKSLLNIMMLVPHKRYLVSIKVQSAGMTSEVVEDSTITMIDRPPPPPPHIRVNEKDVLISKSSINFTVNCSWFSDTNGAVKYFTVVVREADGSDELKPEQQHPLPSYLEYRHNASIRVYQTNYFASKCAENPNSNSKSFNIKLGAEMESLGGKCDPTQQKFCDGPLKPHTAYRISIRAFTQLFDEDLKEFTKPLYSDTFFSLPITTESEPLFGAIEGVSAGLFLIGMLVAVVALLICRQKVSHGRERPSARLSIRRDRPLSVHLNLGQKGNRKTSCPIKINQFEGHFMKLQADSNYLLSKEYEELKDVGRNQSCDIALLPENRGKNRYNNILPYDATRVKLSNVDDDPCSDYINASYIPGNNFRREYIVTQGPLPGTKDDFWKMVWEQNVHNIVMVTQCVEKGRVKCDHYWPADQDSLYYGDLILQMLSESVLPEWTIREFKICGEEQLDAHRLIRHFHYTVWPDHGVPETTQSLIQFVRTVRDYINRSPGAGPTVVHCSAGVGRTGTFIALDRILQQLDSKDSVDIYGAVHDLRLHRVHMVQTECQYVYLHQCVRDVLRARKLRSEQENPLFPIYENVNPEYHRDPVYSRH
# UniProt P10586, whole entry, looked up: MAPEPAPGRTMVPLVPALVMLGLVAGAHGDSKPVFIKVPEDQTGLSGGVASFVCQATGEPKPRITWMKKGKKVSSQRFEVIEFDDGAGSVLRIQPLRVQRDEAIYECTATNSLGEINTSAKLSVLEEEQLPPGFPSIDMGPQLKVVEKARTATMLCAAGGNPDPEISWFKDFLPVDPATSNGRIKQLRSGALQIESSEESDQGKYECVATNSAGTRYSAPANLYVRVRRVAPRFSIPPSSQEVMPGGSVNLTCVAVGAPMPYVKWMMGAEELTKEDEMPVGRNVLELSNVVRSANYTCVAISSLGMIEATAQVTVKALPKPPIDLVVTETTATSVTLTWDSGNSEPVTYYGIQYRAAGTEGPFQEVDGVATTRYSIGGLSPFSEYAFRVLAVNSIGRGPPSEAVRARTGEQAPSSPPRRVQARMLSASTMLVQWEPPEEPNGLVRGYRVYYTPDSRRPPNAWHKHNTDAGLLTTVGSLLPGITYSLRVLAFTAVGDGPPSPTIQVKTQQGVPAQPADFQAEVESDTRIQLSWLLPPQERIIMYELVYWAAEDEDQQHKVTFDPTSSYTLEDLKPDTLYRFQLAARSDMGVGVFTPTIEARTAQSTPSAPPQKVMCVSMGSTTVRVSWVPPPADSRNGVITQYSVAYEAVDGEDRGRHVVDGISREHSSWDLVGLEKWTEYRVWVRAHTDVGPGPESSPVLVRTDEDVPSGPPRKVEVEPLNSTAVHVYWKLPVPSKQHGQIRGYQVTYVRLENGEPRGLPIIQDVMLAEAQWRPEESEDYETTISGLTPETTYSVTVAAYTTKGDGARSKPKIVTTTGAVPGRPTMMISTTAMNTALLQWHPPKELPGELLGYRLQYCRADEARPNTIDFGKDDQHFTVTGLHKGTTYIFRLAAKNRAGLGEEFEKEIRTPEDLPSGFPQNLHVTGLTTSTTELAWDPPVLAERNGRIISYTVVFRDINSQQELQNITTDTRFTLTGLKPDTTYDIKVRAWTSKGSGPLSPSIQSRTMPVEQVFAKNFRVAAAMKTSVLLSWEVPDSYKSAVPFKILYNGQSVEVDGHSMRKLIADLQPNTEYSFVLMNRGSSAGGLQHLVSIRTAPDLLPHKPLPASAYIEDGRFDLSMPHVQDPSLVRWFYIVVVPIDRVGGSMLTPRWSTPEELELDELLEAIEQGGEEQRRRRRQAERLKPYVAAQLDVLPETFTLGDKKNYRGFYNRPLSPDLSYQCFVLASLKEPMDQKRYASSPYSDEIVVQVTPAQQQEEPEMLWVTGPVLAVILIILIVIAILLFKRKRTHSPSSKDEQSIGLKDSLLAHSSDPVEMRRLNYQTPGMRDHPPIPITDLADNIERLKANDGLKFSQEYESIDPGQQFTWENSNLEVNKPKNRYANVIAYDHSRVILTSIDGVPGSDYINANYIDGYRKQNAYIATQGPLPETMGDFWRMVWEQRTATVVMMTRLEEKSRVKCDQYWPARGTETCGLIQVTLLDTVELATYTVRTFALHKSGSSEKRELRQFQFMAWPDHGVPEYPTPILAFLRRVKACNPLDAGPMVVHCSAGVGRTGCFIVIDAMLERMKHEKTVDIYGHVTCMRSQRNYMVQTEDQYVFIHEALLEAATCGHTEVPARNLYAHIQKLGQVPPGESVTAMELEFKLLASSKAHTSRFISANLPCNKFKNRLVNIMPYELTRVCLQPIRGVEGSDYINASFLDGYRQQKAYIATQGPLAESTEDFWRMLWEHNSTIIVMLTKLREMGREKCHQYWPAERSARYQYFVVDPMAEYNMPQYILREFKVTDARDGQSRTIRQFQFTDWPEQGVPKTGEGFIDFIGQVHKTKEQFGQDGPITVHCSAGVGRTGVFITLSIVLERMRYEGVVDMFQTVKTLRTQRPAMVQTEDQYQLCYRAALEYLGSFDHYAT
# UniProt P62136, whole entry, looked up: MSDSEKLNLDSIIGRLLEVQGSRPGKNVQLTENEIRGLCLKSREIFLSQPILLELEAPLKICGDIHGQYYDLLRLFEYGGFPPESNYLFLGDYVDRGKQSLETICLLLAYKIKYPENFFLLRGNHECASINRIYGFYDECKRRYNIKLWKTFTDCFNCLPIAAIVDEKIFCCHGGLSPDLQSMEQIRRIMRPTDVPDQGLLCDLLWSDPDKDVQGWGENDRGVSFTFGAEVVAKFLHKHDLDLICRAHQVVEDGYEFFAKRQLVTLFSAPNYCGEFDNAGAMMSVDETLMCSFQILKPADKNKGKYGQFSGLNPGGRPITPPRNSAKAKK
# This list was built around the results that the source calls inconclusive (neither active nor inactive); the mix of calls is not that of the screen. For some assays here: Potencies of inconclusive entries are doubtful fits and often do not repeat. Activity calls are given as the source filed them. Rule for the calls: active = hit-call score of the fitted dose curve at least 0.9, where 1 is the maximum; inconclusive = response in the unintended direction; inactive = score below 0.9.
# Legend:
# [1] = target: human Phosphoinositide 3-kinase alpha (PI3Ka), PIK3CA (gene 5290) (UniProt P42336); experiment: NVS_ENZ_hPI3Ka: NovaScreen (NVS) Enzymatic Assay for human Phosphoinositide 3-kinase alpha (PI3Ka) (AID 2283196)
# In short: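 Chemicals were first screened at 25 uM in duplicate, then hits were run as concentration series up to 50 uM. Enzyme activity was measured by fluorescence after mobility-shift separation, with loss of signal relative to DMSO taken as activity.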
# [2] = target: human Protein Tyrosine Phosphatase Non-receptor Type 1 (PTPN1), PTPN1 (gene 5770) (UniProt P18031); experiment: NVS_ENZ_hPTPN1: NovaScreen (NVS) Enzymatic Assay for human Protein Tyrosine Phosphatase Non-receptor Type 1 (PTPN1) (AID 2283201)
# In short: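 Cell-free fluorogenic-substrate activity assay on recombinant enzyme, read 1.33 h after dosing by fluorescence and electrophoretic mobility shift; loss of signal vs DMSO baseline. Primary screen in duplicate at 25 uM, hits then run in concentration-response up to 50 uM.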
# [3] = target: human Protein Tyrosine Phosphatase Non-receptor Type 6 (PTPN6), PTPN6 (gene 5777) (UniProt P29350); experiment: NVS_ENZ_hPTPN6: NovaScreen (NVS) Enzymatic Assay for human Protein Tyrosine Phosphatase Non-receptor Type 6 (PTPN6) (AID 2283210)
# In short: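 Cell-free assay with recombinant PTPN6 expressed in SF9 cells, fluorescent substrate, product separated from substrate by electrophoretic mobility shift; read 1.33 hours after dosing. Primary screen in duplicate at 25 uM, actives retested in concentration series; DMSO baseline.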
# [4] = target: human Protein Phosphatase, Mg2+/Mn2+ Dependent 1A (PPM1A), PPM1A (gene 5494) (UniProt P35813); experiment: NVS_ENZ_hPPM1A: NovaScreen (NVS) Enzymatic Assay for human Protein Phosphatase, Mg2+/Mn2+ Dependent 1A (PPM1A) (AID 2283198)
# In short: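 Cell-free recombinant PPM1A phosphatase assay with fluorescent substrate, read 1 h after dosing by electrophoretic mobility shift. Chemicals screened in duplicate at 25 uM, then in concentration-response up to 50 uM; loss of activity versus DMSO.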
# [5] = target: Tyrosine-protein phosphatase non-receptor type 11 (Homo sapiens) (UniProt Q06124); experiment: NVS_ENZ_hPTPN11: NovaScreen (NVS) Enzymatic Assay for human Protein Tyrosine Phosphatase Non-receptor Type 11 (PTPN11) (AID 2283202)
# In short: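 Recombinant human PTPN11 activity on a fluorescent substrate, with substrate/product separated by electrophoretic mobility shift; read 0.5 h after dosing, loss of signal vs DMSO. Duplicate 25 uM screen, then concentration-response up to 50 uM.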
# [6] = target: Tyrosine-protein phosphatase non-receptor type 12 (Homo sapiens) (UniProt Q05209); experiment: NVS_ENZ_hPTPN12: NovaScreen (NVS) Enzymatic Assay for human Protein Tyrosine Phosphatase Non-receptor Type 12 (PTPN12) (AID 2283204)
# In short: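 Single-concentration duplicates (25 uM) preceded singleton concentration-response up to 50 uM for chemicals passing threshold. Cell-free recombinant PTPN12 activity was read 1.33 h after dosing via fluorescence after mobility-shift separation; loss of signal versus DMSO.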
# [7] = target: Tyrosine-protein phosphatase non-receptor type 14 (Homo sapiens) (UniProt Q15678); experiment: NVS_ENZ_hPTPN14: NovaScreen (NVS) Enzymatic Assay for human Protein Tyrosine Phosphatase Non-receptor Type 14 (PTPN14) (AID 2283206)
# In short: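 Cell-free recombinant human PTPN14 with fluorescent substrate, read 0.5 h after dosing by fluorescence and electrophoretic mobility shift separating substrate from product. Primary screen at 25 uM in duplicate; hits run to 50 uM maximum; loss of signal versus DMSO.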
# [8] = target: human Protein Tyrosine Phosphatase Non-receptor Type 4 (PTPN4), PTPN4 (gene 5775) (UniProt P29074); experiment: NVS_ENZ_hPTPN4: NovaScreen (NVS) Enzymatic Assay for human Protein Tyrosine Phosphatase Non-receptor Type 4 (PTPN4) (AID 2283208)
# In short: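 Cell-free assay of PTPN4 expressed in Sf9 cells, using a fluorescent substrate with product separated by mobility shift; read 1.33 h after dosing. Single-point screen at 25 uM, then concentration-response up to 50 uM. Loss of signal relative to DMSO.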
# [9] = target: human Protein Tyrosine Phosphatase Receptor Type B (PTPRB), PTPRB (gene 5787) (UniProt P23467); experiment: NVS_ENZ_hPTPRB: NovaScreen (NVS) Enzymatic Assay for human Protein Tyrosine Phosphatase Receptor Type B (PTPRB) (AID 2283211)
# In short: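 Recombinant human PTPRB with a fluorescent substrate, product separated by electrophoretic mobility shift; read 1 h after dosing. Primary screen in duplicate at 25 uM; actives then retested in concentration series; loss of signal versus DMSO.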
# [10] = target: human Protein Tyrosine Phosphatase Receptor Type F (PTPRF), PTPRF (gene 5792) (UniProt P10586); experiment: NVS_ENZ_hPTPRF: NovaScreen (NVS) Enzymatic Assay for human Protein Tyrosine Phosphatase Receptor Type F (PTPRF) (AID 2283213)
# In short: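 Cell-free fluorescence enzyme assay with recombinant protein and substrate; product separated by electrophoretic mobility shift. Read 1 h after dosing, single 25 uM duplicate screen, then concentration-response up to 50 uM; loss of signal vs DMSO.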
# [11] = target: human Protein Tyrosine Phosphatase Receptor Type M (PTPRM), PTPRM (gene 5797) (UniProt P28827); experiment: NVS_ENZ_hPTPRM: NovaScreen (NVS) Enzymatic Assay for human Protein Tyrosine Phosphatase Receptor Type M (PTPRM) (AID 2283215)
# In short: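 Cell-free recombinant PTPRM with fluorogenic substrate; product separated from substrate by electrophoretic mobility shift and read by fluorescence, 1.33 h after dosing. Primary screen single concentration (25 uM) in duplicate; actives retested in concentration series; loss of signal versus DMSO.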
# [12] = target: Serine/threonine-protein phosphatase PP1-alpha catalytic subunit (Homo sapiens) (UniProt P62136); experiment: NVS_ENZ_hPPP1CA: NovaScreen (NVS) Enzymatic Assay for human Protein Phosphatase 1 Aatalytic subunit Alpha (PPP1CA) (AID 2283200)
# In short: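 Recombinant enzyme activity read by fluorescence with electrophoretic mobility shift separating substrate from product, 1.33 h after dosing; loss of signal vs DMSO baseline. Primary screen in duplicate at 25 uM; actives retested in concentration-response up to 50 uM.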
# [13] = target: Tyrosine-protein phosphatase non-receptor type 13 (Homo sapiens) (UniProt Q12923); experiment: NVS_ENZ_hPTPN13: NovaScreen (NVS) Enzymatic Assay for human Protein Tyrosine Phosphatase Non-receptor Type 13 (PTPN13) (AID 2283205)
# In short: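 Cell-free assay of recombinant human PTPN13 with a fluorescent substrate, product separated by electrophoretic mobility shift and read 0.5 h after dosing. Primary screen at 25 uM in duplicate, then concentration-response up to 50 uM. Loss of signal fitted against DMSO.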
# [14] = target: human Rho Associated Coiled-coil Containing Protein Kinase 1 (ROCK1), ROCK1 (gene 6093) (UniProt Q13464); experiment: NVS_ENZ_hROCK1: NovaScreen (NVS) Enzymatic Assay for human Rho Associated Coiled-coil Containing Protein Kinase 1 (ROCK1) (AID 2283214)
# In short: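 Cell-free recombinant human ROCK1 activity assay; fluorescent substrate and product separated by electrophoretic mobility shift, read 1 h after dosing. Screened in duplicate at 25 uM; loss of signal versus DMSO baseline scored as inhibition.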
smiles,measurement,setting,value
CC(C)c1ccc(C(=O)N=C(N)N)cc1S(C)(=O)=O,outcome,[1],inactive
same,AC50,[2],inconclusive: 18.6 µM
same,AC50,[3],inconclusive: 18.6 µM
CCCCCCCCCCCCc1ccccc1S(=O)(=O)O,AC50,[4],active: 30.2 µM
same,AC50,[5],active: 13.3 µM
same,AC50,[6],active: 11.3 µM
same,AC50,[7],active: 38.2 µM
same,AC50,[8],active: 19.8 µM
same,AC50,[3],active: 13.4 µM
same,AC50,[9],active: 25 µM
same,AC50,[10],active: 25 µM
same,AC50,[11],active: 16.3 µM
CN(C)CCCN1c2ccccc2Sc2ccc(Cl)cc21,AC50,[6],inconclusive: 6.83 µM
CC1(C)NC(=O)NC1=O,AC50,[1],inconclusive: 4.26 µM
same,outcome,[12],inactive
CC(C)(C)c1cccc(C(C)(C)C)c1O,outcome,[12],inactive
O=C1c2ccccc2C(=O)N1CCc1noc(-c2ccc(CN3CCCCCC3)s2)n1,outcome,[5],inactive
CCC(C)OC(=O)N1CCCCC1CCO (centres undefined),AC50,[1],inconclusive: 25 µM
N#[N+]c1ccc2c(S(=O)(=O)[O-])cccc2c1O,outcome,[1],inactive
CN[C@H]1CC[C@@H](c2ccc(Cl)c(Cl)c2)c2ccc(S(N)(=O)=O)cc21,outcome,[4],inactive
Cc1[nH]cnc1C[C@H]1CCc2c(C)c3ccccc3n2C1=O,outcome,[6],inactive
CCCCOC(=O)CC(CC(=O)OCCCC)(OC(C)=O)C(=O)OCCCC,outcome,[13],inactive
c1ccc2cc3ccccc3cc2c1,outcome,[13],inactive
O=C(Nc1ccc([N+](=O)[O-])cc1Cl)c1cc(Cl)ccc1O,AC50,[7],inconclusive: 25 µM
same,outcome,[11],inactive
CCC(C)c1ccccc1O (centres undefined),AC50,[10],inconclusive: 25 µM
CC(C)CC(C)(O)C#CC(C)(O)CC(C)C (centres undefined),AC50,[14],inconclusive: 25 µM
Nc1ccn([C@@H]2O[C@H](CO)[C@@H](O)[C@@H]2O)c(=O)n1,AC50,[14],inconclusive: 25 µM
CCOC(=O)CCC(=O)OCC,AC50,[11],inconclusive: 25 µM

# Retrieved one by one from above (two):
smiles,measurement,setting,value
CCCCCCCCCCCCc1ccccc1S(=O)(=O)O,AC50,[3],active: 13.4 µM
same,AC50,[6],active: 11.3 µM
